In the experiment the target is T1, Cjun KEKE motif peptide (canine), residues 84–105, biotinylated (canine).
T1 sequence (peptide, biotin on the N-terminus (peptides for affinity chromatography)): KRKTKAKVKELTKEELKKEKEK
The experiment can be described thus: pull-down; affinity chromatography: biotinylated canine KEKE peptide on streptavidin–agarose, purified RyR1 or RyR2; both purified.

Results are given in words; binding and its absence hold for the method and conditions named. Binding can be weak; no strength is given.

For the substance RyR2 purified from sheep heart, the binding entry was “binds”.

The values are drawn from paper PMC4342579, “A new cytoplasmic interaction between junctin and ryanodine receptor Ca^2+ release channels” (Journal of Cell Science, 2015).
